Consider two molecules from publication PMC6890460.

Amino acid sequences for entries named in this document (tags omitted).
UniProt Q14980: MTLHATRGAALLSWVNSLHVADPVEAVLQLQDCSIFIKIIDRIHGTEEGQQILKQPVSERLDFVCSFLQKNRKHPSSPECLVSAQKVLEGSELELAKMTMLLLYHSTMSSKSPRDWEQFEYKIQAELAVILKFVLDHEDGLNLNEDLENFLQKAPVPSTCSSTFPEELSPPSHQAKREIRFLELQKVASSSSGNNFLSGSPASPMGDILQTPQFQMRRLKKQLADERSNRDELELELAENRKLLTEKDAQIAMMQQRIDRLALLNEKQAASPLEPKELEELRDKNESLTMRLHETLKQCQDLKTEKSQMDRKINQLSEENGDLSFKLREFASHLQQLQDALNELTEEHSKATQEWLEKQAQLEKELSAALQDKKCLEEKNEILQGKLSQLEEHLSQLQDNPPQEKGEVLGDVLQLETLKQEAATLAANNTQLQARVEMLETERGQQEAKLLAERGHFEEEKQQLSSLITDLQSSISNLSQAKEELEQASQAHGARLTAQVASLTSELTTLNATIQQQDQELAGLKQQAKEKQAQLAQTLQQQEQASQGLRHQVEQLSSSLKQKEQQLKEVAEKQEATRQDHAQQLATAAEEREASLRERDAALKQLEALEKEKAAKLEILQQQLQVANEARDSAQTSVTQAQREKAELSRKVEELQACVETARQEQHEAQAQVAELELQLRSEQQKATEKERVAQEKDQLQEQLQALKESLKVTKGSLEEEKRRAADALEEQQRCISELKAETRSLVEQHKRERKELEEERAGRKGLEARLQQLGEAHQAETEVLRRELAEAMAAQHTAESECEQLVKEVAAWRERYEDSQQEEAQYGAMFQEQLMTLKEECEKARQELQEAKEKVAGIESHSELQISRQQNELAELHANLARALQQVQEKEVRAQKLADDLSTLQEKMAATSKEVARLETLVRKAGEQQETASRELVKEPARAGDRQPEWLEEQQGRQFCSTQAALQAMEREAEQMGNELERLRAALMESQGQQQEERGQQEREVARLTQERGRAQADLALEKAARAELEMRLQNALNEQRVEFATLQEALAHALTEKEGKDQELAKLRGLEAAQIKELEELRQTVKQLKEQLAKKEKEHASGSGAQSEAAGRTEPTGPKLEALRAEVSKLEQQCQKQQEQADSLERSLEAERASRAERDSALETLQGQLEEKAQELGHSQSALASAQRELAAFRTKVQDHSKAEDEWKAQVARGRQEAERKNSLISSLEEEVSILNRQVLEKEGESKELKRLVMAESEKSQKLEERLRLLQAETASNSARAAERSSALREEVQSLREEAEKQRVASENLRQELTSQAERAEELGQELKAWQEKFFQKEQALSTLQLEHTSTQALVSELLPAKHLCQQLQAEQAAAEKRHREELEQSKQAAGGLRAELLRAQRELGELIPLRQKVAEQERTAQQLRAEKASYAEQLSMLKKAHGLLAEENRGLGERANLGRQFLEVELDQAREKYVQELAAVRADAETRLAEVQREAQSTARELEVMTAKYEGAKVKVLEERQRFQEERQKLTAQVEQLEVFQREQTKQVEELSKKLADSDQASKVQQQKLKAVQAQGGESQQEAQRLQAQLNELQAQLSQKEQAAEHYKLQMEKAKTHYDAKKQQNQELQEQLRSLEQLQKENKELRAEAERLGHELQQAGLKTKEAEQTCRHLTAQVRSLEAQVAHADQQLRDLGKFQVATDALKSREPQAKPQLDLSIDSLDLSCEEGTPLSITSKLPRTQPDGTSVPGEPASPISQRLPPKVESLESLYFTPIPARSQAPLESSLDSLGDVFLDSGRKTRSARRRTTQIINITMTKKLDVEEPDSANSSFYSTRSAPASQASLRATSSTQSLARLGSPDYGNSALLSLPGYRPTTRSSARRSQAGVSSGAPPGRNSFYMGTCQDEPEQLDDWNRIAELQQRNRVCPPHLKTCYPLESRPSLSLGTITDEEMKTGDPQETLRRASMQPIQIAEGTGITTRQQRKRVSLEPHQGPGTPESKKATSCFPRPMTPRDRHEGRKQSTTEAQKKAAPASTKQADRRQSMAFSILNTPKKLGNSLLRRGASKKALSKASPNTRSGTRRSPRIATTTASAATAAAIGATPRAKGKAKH

Assay [1] deals with T1, full-length human occludin (hOCLN-wt) (human (endogenous in H9 hESC)) (UniProt Q16625).
T1 sequence: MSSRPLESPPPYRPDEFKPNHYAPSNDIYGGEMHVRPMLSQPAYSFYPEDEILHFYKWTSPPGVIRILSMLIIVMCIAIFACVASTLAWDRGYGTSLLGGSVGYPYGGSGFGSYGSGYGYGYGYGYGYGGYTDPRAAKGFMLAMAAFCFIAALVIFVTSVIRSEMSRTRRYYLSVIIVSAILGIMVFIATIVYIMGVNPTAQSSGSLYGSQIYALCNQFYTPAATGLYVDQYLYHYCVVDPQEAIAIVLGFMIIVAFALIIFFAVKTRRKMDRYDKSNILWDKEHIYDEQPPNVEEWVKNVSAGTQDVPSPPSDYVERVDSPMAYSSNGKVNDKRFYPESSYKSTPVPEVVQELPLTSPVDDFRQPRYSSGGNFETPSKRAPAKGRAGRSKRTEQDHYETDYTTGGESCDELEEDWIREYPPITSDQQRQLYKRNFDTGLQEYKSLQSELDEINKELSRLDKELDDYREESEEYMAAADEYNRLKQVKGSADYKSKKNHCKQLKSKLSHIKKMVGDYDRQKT
The assay is described as follows: co-IP; endogenous proteins from hESC lysates; IP with anti-NuMA, anti-Ran or C-terminus anti-OCLN antibody, immunoblot; input about 3% of total lysate; non-specific IgG as negative control. Background: Immunoblotting shows a protein as a band on a membrane.

In assay [2] the target is NuMA (human (endogenous in H9 hESC)) (UniProt Q14980). Described as above.

These are yes or no findings as the source states them, for the method shown. Binding seen in cells or lysates may run through a third protein. Some entries that bind do so weakly or less than the wild type.

Regarding NuMA (from UniProt Q14980 1-2115), the binding entry in assay [1] was “binds”.

B1: full-length human occludin (hOCLN-wt) (protein, UniProt Q16625 1-522)
chain: T1 sequence
Take B1: in assay [2], the binding result is “binds”.
